These results are taken from PMC5443798, “Functional characterization of the meiosis-specific DNA double-strand break inducing factor SPO-11 from C. elegans”.

Where a chain is given by its changes, count along the chain named. The exact form of at least one protein or probe is not confirmed. For some of these results: A negative result means that nothing was seen under these conditions. Where a protein sequence is shown, tags need not be part of it. For some of these results: The comparison behind a weaker result is the experiment's own reference, which may not be listed here. For some of these results: At least one verdict was read from the data and is not stated in words by the source.

Data set [1] has as its target T1, SPO-11 E202A (Caenorhabditis elegans) (UniProt Q22236).
T1 sequence (looked up, limits assumed): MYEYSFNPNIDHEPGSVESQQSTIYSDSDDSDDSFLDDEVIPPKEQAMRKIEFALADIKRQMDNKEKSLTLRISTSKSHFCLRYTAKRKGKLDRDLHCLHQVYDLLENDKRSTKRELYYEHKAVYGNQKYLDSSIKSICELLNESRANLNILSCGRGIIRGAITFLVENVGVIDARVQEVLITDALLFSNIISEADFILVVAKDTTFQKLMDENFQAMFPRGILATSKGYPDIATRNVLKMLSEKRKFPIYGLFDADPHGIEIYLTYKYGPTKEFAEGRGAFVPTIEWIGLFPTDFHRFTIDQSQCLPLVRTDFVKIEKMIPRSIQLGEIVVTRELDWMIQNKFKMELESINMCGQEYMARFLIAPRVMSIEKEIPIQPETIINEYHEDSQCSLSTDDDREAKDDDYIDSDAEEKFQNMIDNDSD
Nature of the data set: EMSA. Particulars: Mg2+ has no effect; EMSA: 42.5 mM Tris-HCl pH 7.5, 115 mM KCl, 1 mM DTT, 0.1 mg/ml BSA, 3% glycerol, 0.15 mM EDTA, 20 C, 30 min, 300 nM DNA (10 nM plasmid), agarose gel; recombinant protein. In general terms: Mobility shift assays separate free from complexed probe on a gel.

Data set [2] has as its target T2, SPO-11 E202A/D255A (Caenorhabditis elegans) (UniProt Q22236).
T2 sequence (looked up, limits assumed): T1 sequence (looked up, limits assumed) with D255A
Description: EMSA. Particulars: Mg2+ has no effect; EMSA: 42.5 mM Tris-HCl pH 7.5, 115 mM KCl, 1 mM DTT, 0.1 mg/ml BSA, 3% glycerol, 0.15 mM EDTA, 20 C, 30 min, 300 nM DNA (10 nM plasmid), agarose gel; recombinant protein.

In data set [3] the target is T3, SPO-11 (Caenorhabditis elegans) (UniProt Q22236).
T3 sequence (looked up, limits assumed): T1 sequence (looked up, limits assumed) with A202E
Description: EMSA. Particulars: EMSA: 42.5 mM Tris-HCl pH 7.5, 115 mM KCl, 1 mM DTT, 0.1 mg/ml BSA, 3% glycerol, 0.15 mM EDTA, 20 C, 300 nM DNA (10 nM plasmid), agarose gel, recombinant protein.

Data set [4] addresses T3, SPO-11 (Caenorhabditis elegans). Description: competition with a labelled probe. Particulars: 1-10x unlabeled vs N4; EMSA: 42.5 mM Tris-HCl pH 7.5, 115 mM KCl, 1 mM DTT, 0.1 mg/ml BSA, 3% glycerol, 0.15 mM EDTA, 20 C, 30 min, 300 nM DNA (10 nM plasmid), agarose gel; recombinant protein; single-stranded DNA.
[5] abbreviates: minimal binding at 4.8 uM SPO-11, 30 min, single-stranded DNA.

As to “AATATGATAGATAATGATAGTGATGAGGGACGTGGATCTCTTCTTACCTGCGGAGACGTCGAGGAGAACCCAGGACCAGGGGTACCTATGGCCTCCTCCG (double strand) [100 bp dsDNA]”, the binding result in data set [1] was “binds”; in data set [2], “binds”; in data set [3] (SPO-11 pretreated above 30 C for 30 min), “no binding”; in data set [3] (with Mg2+, little or no effect of Mg2+, 30 min), “binds”.
Consider “TTATGTTCATTTTTTATATCCTTTACTTTATTTTCTCTGTTTATTCATTTACTTATTTTGTATTATCCTTATCTTATTTA [80-mer ssDNA top strand (Oligo 1)]”, for which the binding result in data set [4] and in data set [3] (setting [5]) was “binds more weakly” in each case.
Turning to “TTTTTTTTTTTTTTTTTTTTTTTTTTTTTTTTTTTTTTTTTTTTTTTTTTTTTTTTTTTTTTTTTTTTTTTTTTTTTTTT [80-mer poly-dT]”, the binding result in data set [4] and in data set [3] (setting [5]) was “binds more weakly” throughout.
On to “TAAATAAGATAAGGATAATACAAAATAAGTAAATGAATAAACAGAGAAAATAAAGTAAAGGATATAAAAAATGAACATAA [80-mer ssDNA bottom strand (Oligo 2)]”, for which the binding result in data set [4] and in data set [3] (setting [5]) was “binds more weakly” throughout.
